Library screen at single concentrations

Measurements from “University of Dundee, Small-Polar-MMV Screening Library” (2021), ChEMBL document CHEMBL3988442.

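Growth of Mycobacterium tuberculosis over 3 days (7H9 medium with glucose and tyloxapol); the read-out is not stated. Tested at 50 µM. Higher reads as more growth inhibition (inferred: compounds with an IC50 in retests scored well above the rest). Size under these conditions: about 69,000 compounds, about 760 of them at 50% or above in at least one test.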

Values are the deposited “Percent Effect”, in %.
How 0% and 100% were set is not recorded. Most values in the screen are low, and negative values occur.
Compounds were drawn at random from those tested, without regard to their results.
Two or more numbers in one place are separate tests of the same structure; such repeats can differ widely.

* CNc1cc(CNC(=O)c2ccccc2OC)nc(-c2ccncc2)n1 : 18.07%
* Cc1ncc(C)c(N2CCCC(CO)(Cc3cccc(Cl)c3)C2)n1 (stereo not shown) : -3.049%
* Cc1cc(C(=O)N(CCN(C)C)Cc2ccc(Cl)cc2)no1 : 22.04% & 14.43%
* CCS(=O)(=O)N1CCN(C(C)(C)CO)CC1 : -6.243% & 3.004%
* CCCc1nc2c(c(C)c(C)n2CCN(C)C)c(N)c1CC : 11.79% & 21.75%
* CC(NC(=O)c1cc2n(n1)CCCN(C)C2)c1cn2ncsc2n1 (stereo not shown) : 5.305%
* COc1ccc2[nH]cc(C(=O)N3C[C@@H](O)[C@H](N4CCOCC4)C3)c2c1 : -15.5%
* Cc1nc(C)n(CC2CN(Cc3cccc4c3OCCO4)CCO2)n1 (stereo not shown) : 14.43%
* CCc1cc(NC2CCN(S(C)(=O)=O)CC2)n2nc(C)c(C)c2n1 : -3.016% & 0.914%
* CNc1cc(N2CCCC2CNCc2c[nH]nc2C(C)(C)C)ncn1 (stereo not shown) : -9.785%
* Cc1nnsc1C(=O)NCc1nn(C)c2c1COCC2 : 12.26%
* CN(C)Cc1nn(C)c2c1CN(S(=O)(=O)c1ccccc1F)C2 : -6.171% & -2.687%
* CC(C)c1nc2c(n1C)CCN(CC(=O)Nc1cccnc1)C2 : -5.118%
* CC(C)C(=O)Nc1ccc(C(O)Cn2nc(-c3cccs3)oc2=O)cc1 (stereo not shown) : -21%
* CN1CCC(c2cncc(N(C)C)n2)CC1 : 2.662%
* CN(Cc1cccc2ncccc12)C(=O)CCC(F)(F)F : 19.57% & -4.526%
* COc1cccc(CNC(=O)c2nc3c(s2)CCN(C(C)=O)CC3)c1 : -13.55%
* Cc1cc2n(n1)CC(CNC1CCN(CCc3ccccc3)CC1)CN2 (stereo not shown) : 36.35% & 25.5%
* CC(C)(C)c1noc(CCC(=O)N(CC2CCOC2)C2CC2)n1 (stereo not shown) : 8.23%
* CC1CCN(C(=O)c2ccnc(-n3cncn3)c2)c2ccccc21 (stereo not shown) : 3.363% & 4.379%
* COCCCC(=O)NCc1cccc(NC(N)=O)c1 : -12.82% & 0.9861%
* Cc1cc(C)n(CC2CCCN2CCS(=O)(=O)c2ccccc2)n1 (stereo not shown) : -1.348%
* CN(C)c1cc(C2CCCNC2)ccn1.Cl.Cl (stereo not shown) : 21.14%
* CN1CCC(c2cccc(-c3ccc(C(=O)O)cc3)n2)CC1 : 14.03%
* Cc1noc(CCCNC(=O)CNC(=O)c2cc3ccccc3[nH]2)n1 : 6.277%
* c1ccc(CCN2CCc3c(ncn3C3CC3)C2)nc1 : 10.34%
* Cc1cnn(CC2CCCCN2CC(=O)Nc2cccnc2)c1 (stereo not shown) : 14.49%
* CCn1cc(CN2CCCC(c3[nH]ncc3S(C)(=O)=O)C2)cn1 (stereo not shown) : 12.26%
* [H][C@@]12CN(CC(=O)OCC)C[C@]1([H])OCCN2c1ncc(F)cn1 : -40.25%
* Cn1ccnc1COc1ccc(NC(=O)C2CCCO2)cc1 (stereo not shown) : -2.972%
* CCN1CCN(c2ncc(-c3cc(C)no3)c(-c3ccc(C)s3)n2)CC1 : 16.8%

2 of the entries, repeated:

For [H][C@@]12CN(CC(=O)OCC)C[C@]1([H])OCCN2c1ncc(F)cn1 the result was -40.25%.
For CC(C)(C)c1noc(CCC(=O)N(CC2CCOC2)C2CC2)n1 (stereo not shown) the result was 8.23%.